# Assay results as given in PubChem BioAssay AID2517 (National Center for Advancing Translational Sciences (NCATS), 2010).
# By UniProt entry, the sequences of proteins in these tests, tags left out.
# UniProt P27695, whole entry, looked up: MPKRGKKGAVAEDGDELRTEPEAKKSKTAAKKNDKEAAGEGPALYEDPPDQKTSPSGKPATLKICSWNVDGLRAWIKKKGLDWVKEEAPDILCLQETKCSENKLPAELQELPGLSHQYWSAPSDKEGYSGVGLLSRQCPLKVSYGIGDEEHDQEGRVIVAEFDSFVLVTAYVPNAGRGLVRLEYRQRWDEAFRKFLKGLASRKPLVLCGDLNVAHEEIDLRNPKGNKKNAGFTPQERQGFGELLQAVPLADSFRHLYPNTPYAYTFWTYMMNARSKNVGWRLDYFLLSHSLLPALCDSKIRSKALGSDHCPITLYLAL
# Several values for one entry are separate records, joined by “and”; a condition that tells them apart may be missing. Identical values can stand only once. The campaign covered roughly 350,000 compounds. About 1,200 (0.34%) were called active. The shares of active, inactive and inconclusive entries below differ from those in the screen. The call rests on the fitted dose curve; in most records, active means well fitted inhibition curve with a large enough effect; inconclusive means small, poorly fitted or top-dose-only effect; inactive means no such curve, though single readings can be large or run the other way. Potencies beside an inconclusive call are fits to weak or partial responses and may not hold up.
# Target: DNA repair nuclease/redox regulator APEX1 (Homo sapiens) (UniProt P27695)
# Assay: qHTS Assay for Inhibitors of the Human Apurinic/apyrimidinic Endonuclease 1 (APE1); further: nearly all actives have a fitted effect of over 55% in size
# Conditions: recombinant APE1, TAMRA/BHQ-2 abasic DNA cleavage fluorescence; series mostly up to 65.8 µM
# Procedure, shortened: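 0.75 nM APE1 + cpd, 15 min RT; start w/ 50 nM TAMRA/BHQ-2 THF-abasic dsDNA; kinetic fluor 525/598 nm ×3 reads @60 s; Δ(read3−read1); normalized to DMSO and NSC13755 control wells.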
# Potency means the concentration at half of the fitted maximal effect.
row,Structure (SMILES),Potency
1,COc1ccc(-c2csc(NC(=O)c3ccccc3NS(=O)(=O)c3ccc(F)c(F)c3)n2)cc1,"inconclusive: 35.5 µM [inhibitor, single point]"
2,Cn1c(N)c(C(=O)COC(=O)c2cc(-c3ccco3)nc3ccccc23)c(=O)n(Cc2ccccc2)c1=O,"inconclusive: 31.6 µM [inhibitor, partial curve] and inconclusive: 35.5 µM [inhibitor, single point]"
3,Cc1c(NC(=O)COC(=O)c2ccc(S(=O)(=O)N3CCOCC3)cc2)c(=O)n(-c2ccccc2)n1C,"inconclusive: 3.16 µM [inhibitor, single point]"
4,CC(C)c1ccccc1OCCCN1CCCC1,inactive
5,CN1CCN(C2=Nc3cc(Cl)ccc3Nc3ccccc32)CC1,inactive
6,CCOc1ccc(C(CC(=O)O)NC(=O)c2sc3ccccc3c2Cl)cc1 (configuration not stated),inactive
7,CCCCc1nc(NCCNC(=O)c2ccco2)c(C#N)c2c1CSC(C)(C)C2,inactive
8,COCCN1C(=O)C(=O)/C(=C(/O)c2ccc(S(=O)(=O)N3CCOCC3)cc2)C1c1ccc(C(C)C)cc1 (configuration not stated),inactive
9,CN(C)C(=O)c1ccc(-c2ccc3ncnc(Nc4ccccc4)c3c2)cc1,"inconclusive: 28.2 µM [inhibitor, single point]"
10,Cc1ccccc1NC(=O)CN1C(=O)S/C(=C\c2cccn2-c2cccc(C(=O)O)c2)C1=O,"inconclusive: 35.5 µM [inhibitor, single point]"
11,COC(=O)c1cc(NS(=O)(=O)c2ccc(C)c3ccccc23)ccc1N1CCOCC1,"inconclusive: 25.1 µM [inhibitor, partial curve]"
12,COc1ccc(-n2nc(C(=O)N3CCCCC3)c3ccccc3c2=O)cc1,inactive
13,O=C(CCc1nc2ccccc2c(=O)[nH]1)OCCOc1ccc(Cl)cc1,"inconclusive: 100 µM [inhibitor, partial curve, poor fit]"
14,C/C=C/COC(=O)c1[nH]c2c(c1C)C(=O)CC(c1ccc(N(C)C)cc1)C2 (configuration not stated),inactive
15,C#CCOCCOCCOCCNc1nc(N2CCN(C(=O)CCCCCCCCCCNC(=O)[C@H](CO)n3cc(CCCSC)nn3)CC2)nc(N2CCN(C(=O)CCCCCCCCCCNC(=O)[C@H](CCCCN)n3cc(C[C@@H](C)CC)nn3)CC2)n1,"inconclusive: 21.2 µM [inhibitor, single point]"
16,CCOC(=O)c1cc(-c2ccccc2)sc1NC(=O)C(C)Sc1nnc(N)s1 (configuration not stated),"inconclusive: 5.62 µM [inhibitor, full curve, poor fit]"
17,N#CC1=C(N)SC(N)=C(C#N)C1c1ccoc1,"inconclusive: 25.1 µM [inhibitor, single point]"
